Measured data: PubChem BioAssay AID1159584 (Peter MacCallum Cancer Centre, 2016)
The deposit covers about 18,000 reagents; shown is a part drawn at random. Not all columns of the deposit are shown. Not stated in the record: the amount of reagent, the time to read-out.

Purpose: 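Genes that CDH1-null MCF10A cells selectively depend on to survive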 (primary screen)
Cell system: human MCF10A breast epithelial cells, parental and CDH1-null
Knock-down reagent: siRNA against human genes
Measurement: 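Cell viability by CellTiter-Glo ATP luminescence, each line scaled to the mean of mock wells across plates, then CDH1-null over parental ratio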
Scale: CDH1-null / parental viability ratio: higher = CDH1-null cells survive relatively better than parental

Silencing of LRP3 gave: CDH1-null / parental viability ratio 0.92. ZNF10 showed CDH1-null / parental viability ratio 1.3. After knock-down of CPLANE1 the results were CDH1-null / parental viability ratio 0.94. For C16orf82 the deposit lists CDH1-null / parental viability ratio 0.99. PCDHA10 gave CDH1-null / parental viability ratio 1.16. Depletion of RDH16 gave: CDH1-null / parental viability ratio 1.09.

Silencing of POU4F1 gave: CDH1-null / parental viability ratio 1.4. Knock-down of CHTOP gave: CDH1-null / parental viability ratio 0.88. After knock-down of SUFU the results were CDH1-null / parental viability ratio 0.93. Depletion of WHAMM gave: CDH1-null / parental viability ratio 0.71. Depletion of HCFC1R1 gave: CDH1-null / parental viability ratio 0.85. After knock-down of SLCO1C1 the results were CDH1-null / parental viability ratio 1.07.

CCL4 scored CDH1-null / parental viability ratio 1.14. Silencing of SCD came out at: CDH1-null / parental viability ratio 1.21. GGT5 scored CDH1-null / parental viability ratio 1.05. BMP2 gave CDH1-null / parental viability ratio 1.13. Knock-down of RALBP1 came out at: CDH1-null / parental viability ratio 1.08. Silencing of MARCKS gave: CDH1-null / parental viability ratio 0.88.

After knock-down of PTPRN, the screen gave CDH1-null / parental viability ratio 1.03. Silencing of APC came out at: CDH1-null / parental viability ratio 1.13.

Records above whose gene name starts with P or p:
PCDHA10 — CDH1-null / parental viability ratio: 1.16
POU4F1 — CDH1-null / parental viability ratio: 1.4
PTPRN — CDH1-null / parental viability ratio: 1.03

Continued.
For TNFRSF11A, the entry reads CDH1-null / parental viability ratio 0.86. STAT1 scored CDH1-null / parental viability ratio 0.93. With knock-down of ATP4B, the record shows CDH1-null / parental viability ratio 1.26. Depletion of SCN7A came out at: CDH1-null / parental viability ratio 1.13. After knock-down of UCP3, the record shows CDH1-null / parental viability ratio 0.87. UBE2V2 scored CDH1-null / parental viability ratio 1.07.

With knock-down of POU3F1, the record shows CDH1-null / parental viability ratio 1.08. With knock-down of HGFAC, the screen gave CDH1-null / parental viability ratio 1.38. Depletion of GANC came out at: CDH1-null / parental viability ratio 0.89. GPRC6A showed CDH1-null / parental viability ratio 1.47. KERA showed CDH1-null / parental viability ratio 1.18. TAGLN scored CDH1-null / parental viability ratio 0.98.

After knock-down of CCDC13, the record shows CDH1-null / parental viability ratio 0.68. With knock-down of H2AC20 the results were CDH1-null / parental viability ratio 1.1. Depletion of FKBP5 gave: CDH1-null / parental viability ratio 0.87.
